In patent US20260085293A1, “SOLUTION AND METHOD FOR TRANSPORTING OR STORING BODY FLUID SAMPLE” (PROVIGATE INC., priority 2023, published 2026):

Each molecule was assayed on glycoalbumin (assay: Influence of preservatives in the solution on GA values in the HPLC assay). Settings: preservative in the solution; not illustrated.
In the case of `C[C@@H](O)[C@H]1C(=O)N2C(C(=O)O)=C(S[C@@H]3CN[C@H](C(=O)N(C)C)C3)[C@H](C)[C@H]12` [Meropenem trihydrate, reference compound], the “tendency of GA values in the HPLC assay when the component is present” value (“tendency of GA values in the HPLC assay” below) is reported as “higher than actual values”. `Cn1sc(Cl)cc1=O` [CMIT] was tested, and the “tendency of GA values in the HPLC assay” value was “higher than actual values”. In the case of `Cn1sccc1=O` [MIT], the “tendency of GA values in the HPLC assay” value is reported as “higher than actual values”.

Some entries repeat one wording, which the source may state once for all of them.
